{"source": "PubChem BioAssay AID328", "about": "(DTP/NCI, 2004)", "system": "BDF1 mice, P388 leukemia ip, median survival T/C", "test": "NCI In Vivo Anticancer Drug Screen. Data for tumor model P388 Leukemia (intraperitoneal) in B6D2F1 (BDF1) mice", "conditions": "T/C endpoint: median survival time, higher T/C = longer survival", "method": "The antitumor activity of compounds was measured in mice bearing transplantable tumors. Survival or tumor size were measured and the results are expressed as the measurement made in the treated group (T) divided by the measurement made in the vehicle treated control group (C). The tumor model used in this assay is P388 Leukemia (intraperitoneal) in B6D2F1 (BDF1) mice", "key": {"[1]": {"conditions": "dose: 100.0 mg/kg/injection, schedule: Q01DX009 (ip), vehicle: saline with Tween-80"}, "[2]": {"conditions": "dose: 150.0 mg/kg/injection, schedule: Q04DX003 (ip), vehicle: saline with Tween-80"}}, "note": "The list shows only some results of the screen, not a fair sample: it is rich in T/C values a quarter to a half above the control, in often repeated tests (any T/C) and in doses without a T/C. Further doses and runs are listed elsewhere. T/C: endpoint of the treated group in % of that of the vehicle group. Some entries give survivors of the animals treated and no T/C: the source files T/C as zero there, which appears to mark a toxic dose or a test without result, not a measured value. Some survivor counts are full or nearly so, which does not show that the dose was tolerated: survival well below the control is almost never listed, so the zero probably covers shortened survival too. Survivors were counted at the toxicity check, usually on the fifth day, unless a day is given; later deaths do not show. Schedules are NCI's codes, taken here to give the interval after Q, in days (D) or hours (H), and the number of doses after X. Where survival is the endpoint, the PubChem record calls one and a half times the control and up active, and a quarter to a half above the control has no call in these data; cut-offs in other NCI protocols can differ. Some doses were run more than once; the results are listed from low to high. Some T/C values are followed by the survivors on the day toxicity was checked, most often the fifth; without a count, all were alive then."}
{"smiles": "CC(=O)Nc1cccc(Cl)c1C", "values": [{"measurement": "T/C", "setting": "dose: 25.0 mg/kg/injection, schedule: Q01DX009 (ip), vehicle: saline with Tween-80", "result": "145 % of control"}, {"measurement": "T/C", "setting": "[1]", "result": "136 % of control"}]}
{"smiles": "CN=C(NC(C)C)c1ccc(NC(=O)c2ccc(C(=O)Nc3ccc(C(=NC)NC(C)C)cc3)cc2)cc1", "values": [{"measurement": "T/C", "setting": "dose: 32.0 mg/kg/injection, schedule: Q04DX003 (ip), vehicle: saline with Tween-80", "result": "131 % of control"}, {"measurement": "T/C", "setting": "dose: 64.0 mg/kg/injection, schedule: Q04DX003 (ip), vehicle: saline with Tween-80", "result": "136 % of control"}]}
{"smiles": "CCOC(=O)C(Br)C(=O)OCC", "values": [{"measurement": "survivor count", "setting": "dose: 75.0 mg/kg/injection, schedule: Q04DX003 (ip), vehicle: saline", "result": "5 of 6"}, {"measurement": "survivor count", "setting": "dose: 115.0 mg/kg/injection, schedule: Q04DX003 (ip), vehicle: saline", "result": "1 of 6"}, {"measurement": "survivor count", "setting": "dose: 170.0 mg/kg/injection, schedule: Q04DX003 (ip), vehicle: saline", "result": "0 of 6"}]}
{"smiles": "CN=C(N)c1ccc(N=C(N)c2ccc(N=C(N)c3ccc(NC(=O)Nc4cccc(NC(=O)Nc5ccc(C(N)=Nc6ccc(C(N)=Nc7ccc(C(N)=NC)cc7)cc6)cc5)c4)cc3)cc2)cc1", "values": [{"measurement": "T/C", "setting": "dose: 1.3 mg/kg/injection, schedule: Q01DX009 (ip), vehicle: saline with Tween-80", "result": "130 % of control"}, {"measurement": "T/C", "setting": "dose: 2.0 mg/kg/injection, schedule: Q01DX009 (ip), vehicle: saline with Tween-80", "result": "138 and 141 % of control"}, {"measurement": "T/C", "setting": "dose: 25.0 mg/kg/injection, schedule: Q04DX003 (ip), vehicle: saline with Tween-80", "result": "141 % of control"}, {"measurement": "survivor count", "setting": "dose: 75.0 mg/kg/injection, schedule: Q01DX009 (ip), vehicle: saline with Tween-80", "result": "6 of 6"}, {"measurement": "T/C", "setting": "dose: 75.0 mg/kg/injection, schedule: Q04DX003 (ip), vehicle: saline with Tween-80", "result": "131 % of control [5 of 6 alive]"}, {"measurement": "survivor count", "setting": "[2]", "result": "0 of 1"}]}
{"smiles": "COC(=O)c1cc(=O)n(-c2ccccc2F)c(SC)n1", "values": [{"measurement": "survivor count", "setting": "dose: 200.0 mg/kg/injection, schedule: Q04DX003 (ip), vehicle: Klucel (hydroxypropylcellulose) (HPC)", "result": "4 of 6"}, {"measurement": "survivor count", "setting": "dose: 400.0 mg/kg/injection, schedule: Q04DX003 (ip), vehicle: Klucel (hydroxypropylcellulose) (HPC)", "result": "1 of 6"}]}
{"smiles": "CC[C@@H](O)C[C@H]1CCC[C@@]2(C[C@@H]3OC(=O)/C=C/[C@@](C)(O)[C@@H](O)[C@H](C)[C@@H](O)[C@H](OC4CCC(N(C)C)C(C)O4)[C@@H](O)[C@](C)(O)CCCCC/C=C/[C@@H]4CC(C)(C)O[C@@]4(O)C[C@H](O2)[C@H]3C)O1", "note": "(stereo not given in full)", "values": [{"measurement": "survivor count", "setting": "dose: 0.06 mg/kg/injection, schedule: Q01DX009 (ip), vehicle: saline", "result": "5 of 6"}, {"measurement": "survivor count", "setting": "dose: 0.12 mg/kg/injection, schedule: Q01DX009 (ip), vehicle: saline", "result": "1 of 6"}, {"measurement": "survivor count", "setting": "dose: 0.25 mg/kg/injection, schedule: Q01DX009 (ip), vehicle: saline", "result": "0 of 6"}, {"measurement": "survivor count", "setting": "dose: 14.0 mg/kg/injection, schedule: Q04DX003 (ip), vehicle: saline", "result": "0 of 6"}, {"measurement": "survivor count", "setting": "dose: 22.0 mg/kg/injection, schedule: Q04DX003 (ip), vehicle: saline", "result": "0 of 6"}, {"measurement": "survivor count", "setting": "dose: 35.0 mg/kg/injection, schedule: Q04DX003 (ip), vehicle: saline", "result": "0 of 6"}]}
{"smiles": "CCCCN(CCCC)P(=O)(N1CC1)N1CC1", "values": [{"measurement": "T/C", "setting": "dose: 25.0 mg/kg/injection, schedule: Q01DX009 (ip), vehicle: saline", "result": "142 % of control"}, {"measurement": "survivor count", "setting": "dose: 50.0 mg/kg/injection, schedule: Q01DX009 (ip), vehicle: saline", "result": "6 of 6"}, {"measurement": "survivor count", "setting": "dose: 100.0 mg/kg/injection, schedule: Q01DX009 (ip), vehicle: saline", "result": "6 of 6"}]}
{"smiles": "Nc1nc(N)c2nc(CNc3ccc(C(=O)NC(CC(=O)O)C(=O)O)cc3)cnc2n1", "note": "(stereo not given)", "values": [{"measurement": "survivor count", "setting": "[2]", "result": "1 of 6"}]}
{"smiles": "[NH-]C(CCC(N)=O)C(=O)O.[NH-]C(CCC(N)=O)C(=O)O.[Zn+2]", "note": "(stereo not given)", "values": [{"measurement": "survivor count", "setting": "[1]", "result": "2 of 6"}]}
{"smiles": "c1nc(SSc2ncnc3nc[nH]c23)c2[nH]cnc2n1", "values": [{"measurement": "survivor count", "setting": "dose: 3.7 mg/kg/injection, schedule: Q04DX003 (ip), vehicle: saline with Tween-80", "result": "6 of 6"}, {"measurement": "T/C", "setting": "dose: 7.5 mg/kg/injection, schedule: Q04DX003 (ip), vehicle: saline with Tween-80", "result": "142 % of control"}, {"measurement": "T/C", "setting": "dose: 25.0 mg/kg/injection, schedule: Q04DX003 (ip), vehicle: saline", "result": "129 % of control"}, {"measurement": "survivor count", "setting": "dose: 50.0 mg/kg/injection, schedule: Q04DX003 (ip), vehicle: saline with Tween-80", "result": "6 of 6"}]}
{"smiles": "CCCCCCCCCCCC(=O)Oc1c(Cl)c(Cl)c(C#N)c(Cl)c1Cl", "values": [{"measurement": "survivor count", "setting": "[1]", "result": "6 of 6"}]}
{"smiles": "CCN(CC)CCC1(C#N)Cc2ccccc2N(CC)c2ccccc21", "note": "(stereo not given)", "values": [{"measurement": "survivor count", "setting": "dose: 400.0 mg/kg/injection, schedule: Q01DX009 (ip), vehicle: saline with Tween-80", "result": "1 of 6"}]}
{"smiles": "O=C(O)c1ccc(NC(=O)C(F)(F)F)cc1", "values": [{"measurement": "survivor count", "setting": "dose: 50.0 mg/kg/injection, schedule: Q04DX003 (ip), vehicle: saline sonified", "result": "5 of 6"}]}
{"smiles": "Cc1c2cnccc2c(C)c2c1c1ccccc1n2CC1CO1", "note": "(stereo not given)", "values": [{"measurement": "T/C", "setting": "dose: 4.12 mg/kg/injection, schedule: Q01DX009 (ip), vehicle: Klucel (hydroxypropylcellulose) (HPC)", "result": "145 % of control"}, {"measurement": "T/C", "setting": "dose: 6.25 mg/kg/injection, schedule: Q01DX009 (ip), vehicle: Klucel (hydroxypropylcellulose) (HPC)", "result": "140 % of control"}]}
